Among all 53,000 sequences or so, about 3,700 (7%) were called active.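 How the source made its calls: active means gene knockdowns whose robust z-score for IL-1 alpha signal is at least 2 or at most -2, so actives lie on both sides; inactive means the rest.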 This is one part of the list.
assay: Components of the Cytosolic LPS Sensing Pathway: Gene Identification via Genome-wide siRNA Screen; settings: RAW264.7 macrophages, IL-1a HTRF, actives lie on both sides, screened at 100 nM (by protocol), cells primed 5 h with Pam3CSK4 first;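 further: robust z of the log signal after scaling to non-targeting control siRNA wells of the plate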
Summary of the method: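 Cells (RAW264.7, 1×10^4 per well) were transfected with siRNA at 100 nM and cultured 48h at 37 degrees C. Pam3CSK4 was added for 5 hours; LipidA transfection followed for 24 hour. IL-1a was then measured by HTRF.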

z-score, active:
GGAGAAGAAAGCAAAAACCTT against Ing1 -2.11, GGUUCCUCUCAAAAUUCAATT against Gprc6a 3.13, GGCUACUGGAGCAAGUUUATT against Apoc3 2.48, GGUGCAGUUUCUCCUCUUUTT against Pla1a 2.09, GGACCAGACAGGAAGUAUUTT against Snx20 2.3, GUCACAGAAAGCUUAGUCCTT against Olfr427 -2.93, GGAGUCUCCCAAAUGAAGATT against Son -2.84

z-score, inactive:
GGAUCCGUGCUGAAGUUUUTT against Cep20 -0.338, CGCAAGAGUUCCUUUUUUUTT against Sla 0.671, GCUUACUCCAGCAUAUUUCTT against Qdpr -0.437, GCUUCCUUCUUCUUGUCCATT against Vmn1r42 -0.475, GCAUCUACCUAUAAUGAAUTT against Gpatch2l -0.174, GGAGUAGCUGAUCAAACCATT against Slc25a12 -1.8, GGCUCCUAACUCACUGGGATT against Ormdl1 0.0548, GGGCCAAAAUGGUUCCAGCTT against Cyp4b1 0.485, CGAAGGACAAAAUAUCAGCTT against Ccdc7a 0.531, GGAGAAGAGAGGUUGGACCTT against Gal -0.286, GGUACUCCCUAAAUCUAAGTT against Zbtb8b 0.95, GGUAUGAUGGGAAAUUUUUTT against Tmod2 1.07, GGAUAUUCCCAAUUACAAGTT against Plxna3 -0.469, CGGCUUAAUGUUCUACUUATT against A930024E05Rik 0.264, GGCCUGCUUUGUUGUAGUUTT against Olfr830 0.618, GCAGUGAUAGCUUCAAUCUTT against Oasl2 0.87, CCCAGAGUGAUUACUUCAGTT against Klhl15 0.497, GGCCUCCAGUGGAUAAUAGTT against Lpgat1 -0.415, GGAAAUCUCAGGUGAGGUCTT against Clcc1 -0.127, GCUUGUUCCGGGAAUUAUUTT against Ergic2 0.443, CCCUUUCUAGAAAGUCAGUTT against Spata17 -1.85, GGACGGAAAGCUCAUCAUUTT against Gnb2 1.67, GGACCACUAAUUUCAAUGCTT against A730089K16Rik 1.04, GCCCGCUCUCGGAUUUUGATT against Htr1b 1.5, CCUUAUGUCUACAAUCAAATT against Plac1 -0.043, GGAACAAAACAAAUAGCUATT against Vstm2a 1.79, GGGUCCUAAAAAUUCAAUUTT against Decr2 -0.106, CCUUCCUCGUGAUUCGCUATT against Lman2l -0.461, CCUUUACCAAUGUUGGCCCTT against Svs1 -0.212, GGUUUUGUGCCUUAACAGUTT against Abcc4 -0.222, CGUGCUUCGAUUGUAGUUCTT against Zfp607b -0.0328, GGUGAUGGUGUCCUAUAAATT against Hspa1l -0.134, GGCCAGAAUAAGUUAAAUGTT against Cenpl -0.62, GGAGCUUGACAUUAAGGACTT against Erc2 0.809, GCAGAUUUGACAUGGAAAATT against Zp2 0.301, GGCUGAUUAUAAACAUGACTT against Nrap 0.131, GGUGACUCUACAAGCCUUUTT against Elof1 -1.38, GCAGACAACUAGACAUACATT against Selenok -0.42, CCGCUACCUUUGAACGAAUTT against Ren1 1.48, GGAGAAGAGAGUAUUUAAUTT against Dus4l 0.546, CCCUGUGAAAGUGUCAUAUTT against Pigq 1.28, CCACAGAACAAUUUUCACATT against Rnase11 -1.4, GCUAUUGUAGAGAGCUGAATT against Sccpdh 0.107, GGACCCUGAACUACAACCUTT against Olfr860 0.473, GCCAGAUAUCUCACAGACATT against Ppil2 -1.13, GGGCAUUCAUGAAGGUAUUTT against Olfr165 -1.13

Source: PubChem BioAssay AID1508600 (Functional Genomics Laboratory (NCATS/FGL), 2020)
